# No constants are given. Whether binding was seen depends on the method and setting. Binding calls can cover weak binding; strength is not graded here. Tags and fused reporters may be left off the sequences shown.
# Chains of the proteins cited; added tags and fusions are not shown. Lines headed by an entry give the natural chain unless they say otherwise; changes in a name come on top.
# UniProt O32022: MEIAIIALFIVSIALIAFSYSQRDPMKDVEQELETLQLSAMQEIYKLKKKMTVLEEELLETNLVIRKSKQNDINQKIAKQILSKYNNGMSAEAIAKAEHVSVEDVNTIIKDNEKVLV
# Target: T1, FtsX fused to the T18 or T25 domain of Bordetella adenylate cyclase (B. subtilis) (UniProt O34876)
# T1 sequence: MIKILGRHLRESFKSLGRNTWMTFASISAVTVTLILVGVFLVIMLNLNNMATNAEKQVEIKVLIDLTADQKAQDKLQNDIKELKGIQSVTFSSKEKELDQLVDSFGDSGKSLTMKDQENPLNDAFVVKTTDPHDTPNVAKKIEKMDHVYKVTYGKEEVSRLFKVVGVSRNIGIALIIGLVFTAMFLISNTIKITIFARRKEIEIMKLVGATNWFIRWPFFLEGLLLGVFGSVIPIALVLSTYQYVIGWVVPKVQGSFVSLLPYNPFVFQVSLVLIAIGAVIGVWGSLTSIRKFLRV
# Assay: two-hybrid; bacterial adenylate cyclase two-hybrid (BACTH); T18 and T25 fusions co-transformed into E. coli BTH101; spotted on LB agar with IPTG (0.25 mM) and X-Gal, 30°C, 16 hours
row,binding,Substance
1,binds,"SweD lacking its entire intracellular domain [SweD(TM)], BACTH fusion (B. subtilis) (domain or fragment)"
2,binds,"SweD lacking its putative coiled-coil domain (SweDΔCC), BACTH fusion (from UniProt O32022)"

# Source: paper PMC6705773
